The experiment addresses Arabidopsis NPR1 (Arabidopsis) (UniProt P93002). Nature of the experiment: two-hybrid; Gal4 two-hybrid screen of a rice cDNA library (HybriZAP, seven-week-old IRBB21 leaf mRNA, in Y187) by mating with baits in HF7c; selection on SD -His -Trp -Leu + 2 mM 3-AT; prey plasmids re-transformed into AH109 and confirmed on -His -Leu -Trp + 2 mM 3-AT and on -Ade -Leu -Trp.

The chains behind the UniProt entries cited, without tags or fusion partners. Where a name states a change or a piece, a line headed by the entry shows the natural chain unless it says otherwise.
UniProt P93002: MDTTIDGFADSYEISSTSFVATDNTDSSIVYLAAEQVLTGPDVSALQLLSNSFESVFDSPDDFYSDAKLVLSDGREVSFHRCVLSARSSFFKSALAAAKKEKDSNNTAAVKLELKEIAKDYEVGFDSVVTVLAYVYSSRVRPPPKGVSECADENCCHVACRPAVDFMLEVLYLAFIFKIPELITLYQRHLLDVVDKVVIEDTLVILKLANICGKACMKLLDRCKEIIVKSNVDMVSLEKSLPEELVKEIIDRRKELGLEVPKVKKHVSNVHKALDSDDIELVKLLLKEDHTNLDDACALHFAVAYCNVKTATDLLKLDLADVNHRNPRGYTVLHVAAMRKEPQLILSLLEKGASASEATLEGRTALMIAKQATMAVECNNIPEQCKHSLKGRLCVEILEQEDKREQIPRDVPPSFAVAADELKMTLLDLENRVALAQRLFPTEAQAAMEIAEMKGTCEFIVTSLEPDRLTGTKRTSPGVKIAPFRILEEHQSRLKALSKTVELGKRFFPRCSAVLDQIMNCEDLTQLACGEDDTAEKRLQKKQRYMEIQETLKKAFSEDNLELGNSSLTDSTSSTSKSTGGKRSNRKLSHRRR
UniProt Q5ZEF1: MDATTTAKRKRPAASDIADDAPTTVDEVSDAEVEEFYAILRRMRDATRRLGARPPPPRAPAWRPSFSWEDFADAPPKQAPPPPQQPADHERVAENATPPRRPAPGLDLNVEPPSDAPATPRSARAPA

No constants are given. Whether binding was seen depends on the method and setting. A result given as binding can be weak or reduced; the word gives no strength.

NRR (from UniProt Q5ZEF1): the binding result is “binds”.
